Taken from: PubChem BioAssay AID743121 (NCATS, 2013)
The deposit covers about 26,000 reagents; shown is a random part of them. 167 of all reagents (0.63%) were called active. 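Calls are per gene from RSA p-values that are not deposited; an individual active-marked siRNA can sensitise only weakly.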 A number with no mark means an inactive call. The numbers tell different reagents against one gene apart.

Purpose: 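Knock-downs that sensitise breast cancer cells to camptothecin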 (primary screen)
Cell system: MDA-MB-231 cells, a human breast cancer line
Knock-down reagent: single siRNA against human genes, 20 nM siRNA (0.8 pmol per well)
Duration: 120 h (drug added 48 h after transfection, read 72 h later)
Treatment: camptothecin 20 nM (about EC30) for 72 h; vehicle 0.1% DMSO in parallel plates
Measured: 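Cell viability by ATP luminescence (CellTiter-Glo) as % of non-targeting siRNA wells, and the log2 ratio of viability without drug over viability with camptothecin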
Scale: log2 vehicle/camptothecin viability: higher = stronger sensitisation to camptothecin; viability with camptothecin and viability without drug: higher = more viable cells
Call rule: 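Each gene scored by redundant siRNA activity (RSA) over its individual siRNA ratios; a gene is called active at p < 0.001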

Gene	siRNA no.	log2 vehicle/camptothecin viability	viability with camptothecin (% of control)	viability without drug (% of control)
TRHDE	1	0.155	89.6	99.7
TRHDE	2	-0.0219	58.2	57.3
TRHDE	3	-0.244	100	84.4
TRHDE	4	0.202	61.8	71
AMFR	1	-0.246	88.7	74.8
AMFR	2	0.365	45.5	58.6
AMFR	3	0.117	43.6	47.2
AMFR	4	-0.116	58.1	53.6
ANGPT1	1	0.0744	85.9	90.4
ANGPT1	2	-0.18	104	91.5
ANGPT1	3	-0.153	88	79.2
ANGPT1	4	-0.0746	105	99.8
ALOX15B	1	0.593	23.1	34.9
ALOX15B	2	-0.291	93.7	76.6
ALOX15B	3	-0.369	69.8	54.1
ALOX15B	4	-0.281	21.6	17.8
SETD5	1	-0.228	116	98.7
SETD5	2	-0.429	75.5	56.1
SETD5	3	-0.195	44.2	38.6
SETD5	4	-0.238	107	90.7
SETD5	5	0.0259	91.5	93.1
SETD5	6	-0.297	54.2	44.1
SETD5	7	0.253	52.5	62.6
SETD5	8	0.222	67.9	79.1
SETD5	9	-0.132	71	64.8
SETD5	10	-0.191	110	96.7
SETD5	11	-0.0533	72.1	69.5
SETD5	12	-0.0903	46.6	43.7

Part of the list above in another layout:
ANGPT1 #1: log2 vehicle/camptothecin viability = 0.0744; viability with camptothecin (% of control) = 85.9; viability without drug (% of control) = 90.4
ANGPT1 #2: log2 vehicle/camptothecin viability = -0.18; viability with camptothecin (% of control) = 104; viability without drug (% of control) = 91.5
ANGPT1 #3: log2 vehicle/camptothecin viability = -0.153; viability with camptothecin (% of control) = 88; viability without drug (% of control) = 79.2
ANGPT1 #4: log2 vehicle/camptothecin viability = -0.0746; viability with camptothecin (% of control) = 105; viability without drug (% of control) = 99.8
